Reference: patent US20050147555A1
Results are given in words; binding and its absence hold for the method and conditions named. Some results given as binding are weak or reduced against the parent protein; the word gives no strength. Blank lines part the entries; values can stand above or below the binder they belong to.

Sequences of proteins named here, by UniProt entry; tags and fusion partners are left off. A change or cut given only in a name is not applied to a line headed by its entry. Residues count along the entry.
UniProt P35968, residues 20-1356: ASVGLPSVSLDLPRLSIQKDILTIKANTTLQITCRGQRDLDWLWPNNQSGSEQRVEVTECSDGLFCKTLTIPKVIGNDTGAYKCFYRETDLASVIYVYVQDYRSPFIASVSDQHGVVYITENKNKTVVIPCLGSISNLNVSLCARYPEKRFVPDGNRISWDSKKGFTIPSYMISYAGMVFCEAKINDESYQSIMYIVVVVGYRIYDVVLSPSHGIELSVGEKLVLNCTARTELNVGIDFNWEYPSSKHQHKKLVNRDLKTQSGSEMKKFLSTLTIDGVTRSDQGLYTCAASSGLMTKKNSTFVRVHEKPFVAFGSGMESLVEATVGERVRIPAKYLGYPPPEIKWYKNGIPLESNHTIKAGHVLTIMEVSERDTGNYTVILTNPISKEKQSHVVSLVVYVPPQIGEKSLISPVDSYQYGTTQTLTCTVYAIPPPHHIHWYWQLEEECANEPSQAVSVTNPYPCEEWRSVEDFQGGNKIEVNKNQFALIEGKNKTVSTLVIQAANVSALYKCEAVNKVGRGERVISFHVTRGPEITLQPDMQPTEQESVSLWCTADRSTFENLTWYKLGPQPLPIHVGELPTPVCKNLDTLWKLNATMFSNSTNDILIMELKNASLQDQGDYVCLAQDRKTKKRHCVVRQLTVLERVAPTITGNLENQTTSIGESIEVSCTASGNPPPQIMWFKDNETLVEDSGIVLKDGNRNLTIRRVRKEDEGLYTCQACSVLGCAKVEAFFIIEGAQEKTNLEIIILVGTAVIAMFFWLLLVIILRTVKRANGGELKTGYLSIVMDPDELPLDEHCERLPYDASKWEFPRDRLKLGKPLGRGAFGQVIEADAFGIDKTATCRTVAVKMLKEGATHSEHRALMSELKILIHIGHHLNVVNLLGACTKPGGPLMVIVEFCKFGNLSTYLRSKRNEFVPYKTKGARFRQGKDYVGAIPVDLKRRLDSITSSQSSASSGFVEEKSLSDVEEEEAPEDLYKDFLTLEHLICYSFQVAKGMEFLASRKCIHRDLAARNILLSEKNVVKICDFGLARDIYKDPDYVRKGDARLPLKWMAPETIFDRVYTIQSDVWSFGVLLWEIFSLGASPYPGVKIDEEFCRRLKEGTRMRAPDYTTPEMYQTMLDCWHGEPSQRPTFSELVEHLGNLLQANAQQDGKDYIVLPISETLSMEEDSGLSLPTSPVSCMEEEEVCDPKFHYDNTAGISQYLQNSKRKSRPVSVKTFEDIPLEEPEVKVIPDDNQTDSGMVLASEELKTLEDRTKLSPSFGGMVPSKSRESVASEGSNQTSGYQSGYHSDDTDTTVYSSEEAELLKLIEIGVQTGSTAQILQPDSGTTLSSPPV
UniProt P15692: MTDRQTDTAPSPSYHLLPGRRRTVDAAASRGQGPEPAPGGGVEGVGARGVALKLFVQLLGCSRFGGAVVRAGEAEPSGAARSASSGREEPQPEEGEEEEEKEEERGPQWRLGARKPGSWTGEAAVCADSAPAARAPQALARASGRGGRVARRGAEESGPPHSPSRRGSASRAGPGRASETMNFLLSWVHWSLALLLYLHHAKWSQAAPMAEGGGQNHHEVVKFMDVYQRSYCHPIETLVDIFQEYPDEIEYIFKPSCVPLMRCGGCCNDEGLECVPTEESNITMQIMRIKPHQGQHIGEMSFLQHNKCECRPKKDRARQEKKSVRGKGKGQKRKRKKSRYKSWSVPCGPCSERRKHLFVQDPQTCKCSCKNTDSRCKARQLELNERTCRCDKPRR

Columns and labels:
[1] = molecular target: T1, KDR/VEGF complex on KDR-transfected 293H cells (human) (UniProt P35968+P15692); test: peptide/125I-streptavidin complex on KDR- and mock-transfected 293H cells with VEGF
[2] = molecular target: T1, KDR/VEGF complex on KDR-transfected 293H cells (human); test: total binding of the peptide/125I-streptavidin complex in the presence of VEGF to mock- and KDR-transfected 293H cells
[3] = molecular target: KDR (VEGFR-2, Flk-1), full-length receptor on cells (human) (UniProt P35968); test: peptide-conjugated microbubbles on KDR- and mock-transfected 293H cells in 50% human serum, percent of surface covered
[4] = molecular target: KDR (VEGFR-2, Flk-1), full-length receptor on cells (human) (UniProt P35968); test: peptide-conjugated microbubbles on KDR-transfected 293H cells in 50% human serum

binding [1]: binds
binding [2]: binds
B1: P30-XB complex with 125I-streptavidin (peptide)
peptide: AGPGPCKGYMPHQCWYMGTGGGK
modifications: N-acetyl; C-terminal Lys N-epsilon Biotin-JJ; C-terminal amide

binding [3]: binds
binding [4]: binds
B2: mixed monomers (P6 derivative and P12 derivative in equal quantities) conjugated to microbubbles (peptide)
peptide 1: GDSRVCWEDSWGGEVCFRYDP
peptide 2: AGPTWCEDDWYYCWLFGT
modifications: joined to the microbubble
